These results are taken from the supplement of paper PMC12819154, “High-throughput peptide-centric local stability assay extends protein–ligand identification to membrane proteins, tissues and bacteria” (Nature Structural & Molecular Biology, 2025).

By UniProt entry, the sequences of proteins in these tests, tags left out. Where a name states a change or a piece, a line headed by the entry shows the natural chain unless it says otherwise.
UniProt Q03401: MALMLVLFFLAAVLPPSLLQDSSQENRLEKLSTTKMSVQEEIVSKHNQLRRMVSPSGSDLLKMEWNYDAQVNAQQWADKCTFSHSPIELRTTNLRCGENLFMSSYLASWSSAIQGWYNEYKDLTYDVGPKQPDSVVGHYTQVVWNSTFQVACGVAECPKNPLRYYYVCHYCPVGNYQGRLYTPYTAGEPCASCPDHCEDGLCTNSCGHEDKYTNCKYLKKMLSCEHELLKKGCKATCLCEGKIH
UniProt Q0VBM2: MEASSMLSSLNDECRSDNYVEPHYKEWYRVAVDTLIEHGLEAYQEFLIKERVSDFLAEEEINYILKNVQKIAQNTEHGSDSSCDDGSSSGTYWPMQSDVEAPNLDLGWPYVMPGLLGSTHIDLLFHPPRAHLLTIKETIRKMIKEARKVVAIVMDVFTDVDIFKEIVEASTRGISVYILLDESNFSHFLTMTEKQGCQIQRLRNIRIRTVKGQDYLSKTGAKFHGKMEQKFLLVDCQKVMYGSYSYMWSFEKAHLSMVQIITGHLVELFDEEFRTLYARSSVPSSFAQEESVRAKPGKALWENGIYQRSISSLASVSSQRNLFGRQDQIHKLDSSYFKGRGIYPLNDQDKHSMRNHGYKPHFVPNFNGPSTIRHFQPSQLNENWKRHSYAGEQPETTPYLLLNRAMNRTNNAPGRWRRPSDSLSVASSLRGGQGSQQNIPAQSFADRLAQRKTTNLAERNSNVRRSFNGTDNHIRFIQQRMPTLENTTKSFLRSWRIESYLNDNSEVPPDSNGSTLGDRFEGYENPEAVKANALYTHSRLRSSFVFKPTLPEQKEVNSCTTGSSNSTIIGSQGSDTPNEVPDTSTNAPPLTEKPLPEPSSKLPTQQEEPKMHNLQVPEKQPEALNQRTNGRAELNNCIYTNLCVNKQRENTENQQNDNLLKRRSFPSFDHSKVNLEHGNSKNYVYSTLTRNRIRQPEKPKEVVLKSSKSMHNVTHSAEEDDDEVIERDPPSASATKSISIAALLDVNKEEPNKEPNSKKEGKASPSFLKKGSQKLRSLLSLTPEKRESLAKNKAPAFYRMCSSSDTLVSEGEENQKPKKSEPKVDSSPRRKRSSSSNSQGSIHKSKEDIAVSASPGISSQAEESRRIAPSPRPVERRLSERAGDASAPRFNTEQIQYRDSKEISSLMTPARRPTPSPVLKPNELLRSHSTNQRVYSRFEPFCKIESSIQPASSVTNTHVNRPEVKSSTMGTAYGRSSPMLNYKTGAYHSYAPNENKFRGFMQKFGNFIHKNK
UniProt Q3TB48: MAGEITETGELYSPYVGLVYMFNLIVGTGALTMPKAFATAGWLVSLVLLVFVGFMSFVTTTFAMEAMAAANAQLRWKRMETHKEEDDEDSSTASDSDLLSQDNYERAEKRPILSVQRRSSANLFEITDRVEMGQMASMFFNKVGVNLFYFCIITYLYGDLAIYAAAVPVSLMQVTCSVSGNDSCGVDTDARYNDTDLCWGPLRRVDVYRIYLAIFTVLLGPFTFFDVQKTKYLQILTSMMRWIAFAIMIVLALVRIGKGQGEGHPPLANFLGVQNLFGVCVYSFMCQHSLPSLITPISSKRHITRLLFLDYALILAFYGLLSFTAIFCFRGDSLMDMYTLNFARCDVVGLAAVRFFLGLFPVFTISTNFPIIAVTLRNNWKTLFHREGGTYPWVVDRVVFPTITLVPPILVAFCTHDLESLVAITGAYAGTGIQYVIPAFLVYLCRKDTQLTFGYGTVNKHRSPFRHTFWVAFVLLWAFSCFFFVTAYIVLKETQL
UniProt Q3TY86: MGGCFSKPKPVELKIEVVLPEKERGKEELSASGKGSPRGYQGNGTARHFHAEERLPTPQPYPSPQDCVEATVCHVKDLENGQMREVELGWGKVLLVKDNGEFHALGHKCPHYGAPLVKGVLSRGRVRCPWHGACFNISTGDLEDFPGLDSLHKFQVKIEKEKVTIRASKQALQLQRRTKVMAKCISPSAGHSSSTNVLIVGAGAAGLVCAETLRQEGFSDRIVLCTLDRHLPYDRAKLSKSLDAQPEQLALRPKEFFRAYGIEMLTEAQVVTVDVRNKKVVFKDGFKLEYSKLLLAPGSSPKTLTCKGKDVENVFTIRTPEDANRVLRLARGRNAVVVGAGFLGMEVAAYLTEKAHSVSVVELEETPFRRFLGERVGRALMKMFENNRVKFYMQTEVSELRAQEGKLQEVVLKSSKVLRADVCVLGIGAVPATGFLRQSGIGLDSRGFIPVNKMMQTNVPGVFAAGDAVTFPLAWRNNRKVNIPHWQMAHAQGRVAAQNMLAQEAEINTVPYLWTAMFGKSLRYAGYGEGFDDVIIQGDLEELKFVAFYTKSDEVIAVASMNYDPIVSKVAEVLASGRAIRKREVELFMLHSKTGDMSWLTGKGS
UniProt Q0VGY8: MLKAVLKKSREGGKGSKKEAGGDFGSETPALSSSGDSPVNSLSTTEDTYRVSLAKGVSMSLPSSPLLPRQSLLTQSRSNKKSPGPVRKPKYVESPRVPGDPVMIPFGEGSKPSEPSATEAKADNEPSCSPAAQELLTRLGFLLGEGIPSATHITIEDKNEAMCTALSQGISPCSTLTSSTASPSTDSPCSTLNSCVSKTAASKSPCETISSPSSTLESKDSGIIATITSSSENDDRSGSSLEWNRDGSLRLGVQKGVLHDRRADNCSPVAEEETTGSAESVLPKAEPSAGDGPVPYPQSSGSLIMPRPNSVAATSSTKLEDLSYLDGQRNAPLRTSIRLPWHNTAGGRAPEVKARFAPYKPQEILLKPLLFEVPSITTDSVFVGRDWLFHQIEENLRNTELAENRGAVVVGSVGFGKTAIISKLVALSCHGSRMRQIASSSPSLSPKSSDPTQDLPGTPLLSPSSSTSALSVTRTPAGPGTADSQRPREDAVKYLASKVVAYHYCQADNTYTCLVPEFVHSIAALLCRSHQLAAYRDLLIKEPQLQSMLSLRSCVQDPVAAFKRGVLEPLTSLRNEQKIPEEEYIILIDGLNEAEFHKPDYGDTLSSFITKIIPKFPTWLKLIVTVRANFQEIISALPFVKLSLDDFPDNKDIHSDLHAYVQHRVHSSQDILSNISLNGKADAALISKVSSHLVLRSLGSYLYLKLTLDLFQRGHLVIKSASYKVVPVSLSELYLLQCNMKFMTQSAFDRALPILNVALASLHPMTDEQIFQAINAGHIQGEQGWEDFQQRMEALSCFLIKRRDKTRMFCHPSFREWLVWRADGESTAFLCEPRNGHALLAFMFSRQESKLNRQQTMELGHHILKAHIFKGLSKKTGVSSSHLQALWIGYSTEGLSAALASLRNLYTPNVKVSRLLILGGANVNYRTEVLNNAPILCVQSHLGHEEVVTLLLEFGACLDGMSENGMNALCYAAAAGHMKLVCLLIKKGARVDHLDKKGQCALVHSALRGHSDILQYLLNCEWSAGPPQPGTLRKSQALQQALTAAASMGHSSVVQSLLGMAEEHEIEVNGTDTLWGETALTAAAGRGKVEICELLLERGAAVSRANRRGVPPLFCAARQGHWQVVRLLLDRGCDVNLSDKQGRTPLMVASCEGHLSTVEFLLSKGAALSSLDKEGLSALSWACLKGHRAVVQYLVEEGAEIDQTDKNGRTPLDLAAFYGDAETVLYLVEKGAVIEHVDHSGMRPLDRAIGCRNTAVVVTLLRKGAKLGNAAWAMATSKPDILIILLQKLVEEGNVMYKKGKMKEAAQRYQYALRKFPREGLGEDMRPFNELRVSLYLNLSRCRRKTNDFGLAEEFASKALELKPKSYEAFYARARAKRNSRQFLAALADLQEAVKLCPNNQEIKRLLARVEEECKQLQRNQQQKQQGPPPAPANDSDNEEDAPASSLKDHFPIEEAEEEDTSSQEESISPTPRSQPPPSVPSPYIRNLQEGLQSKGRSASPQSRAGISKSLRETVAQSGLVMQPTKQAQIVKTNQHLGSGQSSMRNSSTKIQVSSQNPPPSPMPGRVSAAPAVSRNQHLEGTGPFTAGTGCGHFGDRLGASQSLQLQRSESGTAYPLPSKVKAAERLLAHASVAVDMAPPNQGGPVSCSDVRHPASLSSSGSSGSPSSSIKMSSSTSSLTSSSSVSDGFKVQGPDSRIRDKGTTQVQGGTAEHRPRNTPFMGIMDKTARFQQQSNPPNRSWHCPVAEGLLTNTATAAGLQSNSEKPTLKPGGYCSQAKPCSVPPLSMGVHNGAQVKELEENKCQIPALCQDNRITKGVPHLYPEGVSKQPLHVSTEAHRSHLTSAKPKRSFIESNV
UniProt Q3U269: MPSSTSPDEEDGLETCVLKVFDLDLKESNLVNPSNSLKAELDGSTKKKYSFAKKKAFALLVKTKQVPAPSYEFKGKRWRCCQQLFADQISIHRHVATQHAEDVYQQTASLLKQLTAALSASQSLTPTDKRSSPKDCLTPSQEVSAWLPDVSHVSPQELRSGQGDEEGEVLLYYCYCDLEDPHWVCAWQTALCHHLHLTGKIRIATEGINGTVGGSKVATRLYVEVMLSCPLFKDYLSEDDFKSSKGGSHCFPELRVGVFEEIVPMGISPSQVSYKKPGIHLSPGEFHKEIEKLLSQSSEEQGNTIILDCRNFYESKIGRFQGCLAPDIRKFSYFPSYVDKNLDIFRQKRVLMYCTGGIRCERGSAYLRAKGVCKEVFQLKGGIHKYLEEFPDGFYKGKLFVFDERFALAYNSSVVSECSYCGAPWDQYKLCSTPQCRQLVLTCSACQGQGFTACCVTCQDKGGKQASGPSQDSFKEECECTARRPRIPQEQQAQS
UniProt Q3TCH7, whole entry: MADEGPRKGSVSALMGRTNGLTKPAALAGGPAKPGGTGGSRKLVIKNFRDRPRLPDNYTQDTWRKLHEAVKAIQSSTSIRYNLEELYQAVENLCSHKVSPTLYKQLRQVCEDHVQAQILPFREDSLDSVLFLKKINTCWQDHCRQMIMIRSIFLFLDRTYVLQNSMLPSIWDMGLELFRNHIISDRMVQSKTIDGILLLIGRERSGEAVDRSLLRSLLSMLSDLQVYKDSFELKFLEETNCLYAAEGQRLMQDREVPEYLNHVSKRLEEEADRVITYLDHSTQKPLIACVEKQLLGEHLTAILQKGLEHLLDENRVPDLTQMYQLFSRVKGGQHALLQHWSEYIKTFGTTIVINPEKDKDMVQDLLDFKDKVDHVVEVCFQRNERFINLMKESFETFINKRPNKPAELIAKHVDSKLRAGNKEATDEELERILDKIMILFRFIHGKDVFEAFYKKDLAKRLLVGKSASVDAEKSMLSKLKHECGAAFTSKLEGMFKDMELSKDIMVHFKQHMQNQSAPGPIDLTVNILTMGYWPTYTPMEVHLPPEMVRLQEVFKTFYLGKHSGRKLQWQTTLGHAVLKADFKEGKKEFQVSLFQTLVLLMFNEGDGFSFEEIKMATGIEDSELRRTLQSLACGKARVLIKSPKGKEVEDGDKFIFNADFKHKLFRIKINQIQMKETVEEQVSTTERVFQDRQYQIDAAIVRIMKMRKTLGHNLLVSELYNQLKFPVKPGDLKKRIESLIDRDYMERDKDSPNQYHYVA
UniProt Q149F1: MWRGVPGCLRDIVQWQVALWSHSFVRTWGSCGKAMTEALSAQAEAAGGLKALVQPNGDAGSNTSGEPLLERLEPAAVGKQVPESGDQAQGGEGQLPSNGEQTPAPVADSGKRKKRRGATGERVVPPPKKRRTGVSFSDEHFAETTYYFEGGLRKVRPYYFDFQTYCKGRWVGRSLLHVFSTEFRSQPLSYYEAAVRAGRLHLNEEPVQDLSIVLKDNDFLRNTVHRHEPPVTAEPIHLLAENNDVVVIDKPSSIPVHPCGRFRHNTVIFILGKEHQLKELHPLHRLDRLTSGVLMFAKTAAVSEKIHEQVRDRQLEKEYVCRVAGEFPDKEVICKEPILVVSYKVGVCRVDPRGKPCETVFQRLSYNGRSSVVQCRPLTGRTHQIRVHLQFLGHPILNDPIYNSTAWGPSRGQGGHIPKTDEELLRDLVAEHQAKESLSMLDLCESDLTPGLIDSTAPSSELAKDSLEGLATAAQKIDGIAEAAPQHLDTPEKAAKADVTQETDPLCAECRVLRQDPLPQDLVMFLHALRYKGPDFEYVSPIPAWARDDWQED
UniProt Q3TFD2: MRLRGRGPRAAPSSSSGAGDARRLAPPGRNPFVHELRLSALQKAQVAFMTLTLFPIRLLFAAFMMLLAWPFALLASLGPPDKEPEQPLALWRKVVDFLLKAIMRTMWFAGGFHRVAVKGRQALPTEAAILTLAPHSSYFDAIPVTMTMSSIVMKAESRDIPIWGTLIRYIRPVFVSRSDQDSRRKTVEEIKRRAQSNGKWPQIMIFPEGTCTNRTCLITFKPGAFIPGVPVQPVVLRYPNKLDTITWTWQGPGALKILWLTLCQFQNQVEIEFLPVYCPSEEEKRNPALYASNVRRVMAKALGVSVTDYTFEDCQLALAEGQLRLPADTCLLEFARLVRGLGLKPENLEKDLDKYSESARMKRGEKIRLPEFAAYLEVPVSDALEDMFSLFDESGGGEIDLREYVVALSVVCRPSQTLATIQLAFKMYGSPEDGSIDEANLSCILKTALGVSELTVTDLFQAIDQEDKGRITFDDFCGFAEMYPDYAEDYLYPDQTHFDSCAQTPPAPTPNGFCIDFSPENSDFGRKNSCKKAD

Some of the results follow. Most values lie at the level of the controls, where differences are scatter.

Compound in the assay: CN[C@@H]1C[C@H]2O[C@@](C)([C@@H]1OC)n1c3ccccc3c3c4c(c5c6ccccc6n2c5c31)C(=O)NC4 [staurosporine]
The experiment in a line: log2 fold change of tryptic peptide abundance, ligand vs vehicle (limited proteolysis) (log2 ratio); higher = more trypsin-susceptible (destabilized). The settings on record: ligand concentration: 20 uM; sample: mouse liver crude lysate; replicate design: treated separately.
For “UniProt Q03401 (peptide sequence: RMVSPSGSDLLK, peptide start residue: 51)”, the log2 fold change stood at 0.433.
On to “UniProt Q0VBM2 (peptide sequence: FEGYENPEAVK, peptide start residue: 520)”, for which the log2 fold change came out at 0.104.
Regarding “UniProt Q3TB48 (peptide sequence: AEKRPILSVQR, peptide start residue: 107)”, the log2 fold change is -0.271.
As to “UniProt Q3TY86 (peptide sequence: IEVVLPEKER, peptide start residue: 15)”, the log2 fold change turned out to be 0.333.
“UniProt Q05921 (peptide sequence: SLHSMTRPMIGK, peptide start residue: 348)”: the log2 fold change is -0.618.
Turning to “UniProt Q3TAA7 (peptide sequence: TLDPSPAGWFVQQHR, peptide start residue: 401)”, the log2 fold change came to 0.0305.
Turning to “UniProt Q08369 (peptide sequence: ANPGRHPNLDMFDDFSEGR, peptide start residue: 196)”, the log2 fold change came to 0.262.
As for “UniProt Q0VGY8 (peptide sequence: LEDLSYLDGQR, peptide start residue: 319)”, the log2 fold change was -0.557.
For “UniProt Q3U269 (peptide sequence: VLMYCTGGIR, peptide start residue: 350)”, the log2 fold change is -0.469.
In the case of “UniProt Q3TCH7 (peptide sequence: DKDSPNQYHYVA, peptide start residue: 748)”, the log2 fold change was -0.361.
As to “UniProt Q149F1 (peptide sequence: DLVAEHQAK, peptide start residue: 427)”, the log2 fold change was found to be 0.113.
Regarding “UniProt Q3TFD2 (peptide sequence: AAPSSSSGAGDAR, peptide start residue: 10)”, the log2 fold change is -0.0121.
As for “UniProt Q3U2J5 (peptide sequence: RFESFNLFSVTEATKK, peptide start residue: 64)”, the log2 fold change was -0.648.
